In paper PMC11787194 one finds binding data, which are given here for three molecules.

Sequences of proteins named here, by UniProt entry; tags and fusion partners are left off.
UniProt Q9R0I6: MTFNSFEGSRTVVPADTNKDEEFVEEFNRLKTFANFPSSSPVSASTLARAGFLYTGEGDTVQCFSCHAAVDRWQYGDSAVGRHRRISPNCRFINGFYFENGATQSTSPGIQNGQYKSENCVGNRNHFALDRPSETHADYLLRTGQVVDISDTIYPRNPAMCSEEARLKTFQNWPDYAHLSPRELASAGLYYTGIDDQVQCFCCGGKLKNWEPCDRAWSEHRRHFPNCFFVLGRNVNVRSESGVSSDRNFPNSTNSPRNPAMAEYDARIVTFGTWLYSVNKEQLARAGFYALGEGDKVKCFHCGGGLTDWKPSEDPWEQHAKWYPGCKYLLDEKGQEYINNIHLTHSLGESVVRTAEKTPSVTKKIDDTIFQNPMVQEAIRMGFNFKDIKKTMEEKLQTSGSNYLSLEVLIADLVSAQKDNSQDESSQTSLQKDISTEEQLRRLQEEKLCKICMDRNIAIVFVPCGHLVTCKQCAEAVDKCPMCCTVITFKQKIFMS

Where two headings read alike, the source gives them in different places. These are yes or no findings as the source states them, for the method shown. In cells and extracts the contact can be indirect. Some results given as binding are weak or reduced against the parent protein; the word gives no strength.

Experiment [1] addresses T1, receptor-interacting protein 3 (RIP3) (rat (endogenous in CTX TNA2 astrocytes)) (UniProt Q9Z2P5).
T1 sequence: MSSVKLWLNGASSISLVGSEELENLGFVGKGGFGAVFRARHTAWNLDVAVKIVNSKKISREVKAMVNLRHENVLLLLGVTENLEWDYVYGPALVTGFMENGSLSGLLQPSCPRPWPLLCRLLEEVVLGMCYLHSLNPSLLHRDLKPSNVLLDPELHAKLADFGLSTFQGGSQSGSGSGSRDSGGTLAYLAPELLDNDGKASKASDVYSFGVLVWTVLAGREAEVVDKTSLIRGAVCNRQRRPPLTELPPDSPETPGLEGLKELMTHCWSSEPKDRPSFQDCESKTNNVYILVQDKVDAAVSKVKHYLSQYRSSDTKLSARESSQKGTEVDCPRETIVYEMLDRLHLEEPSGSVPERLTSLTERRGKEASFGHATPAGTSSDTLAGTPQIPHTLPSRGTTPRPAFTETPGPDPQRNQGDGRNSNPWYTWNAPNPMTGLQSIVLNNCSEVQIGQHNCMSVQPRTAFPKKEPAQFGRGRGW
Description: co-IP; cell lysates in IP buffer; anti-RIP3 antibody (1 ug) or normal IgG for 2 h at 4 °C, protein A/G agarose beads overnight at 4 °C; partners detected by immunoblot. (In western blotting, separated proteins are transferred to a membrane and probed.)

The target of experiment [2] is T1, receptor-interacting protein 3 (RIP3) (rat (endogenous in CTX TNA2 astrocytes)). The description is as above. This is another data set of the same source.

Turning to XIAP (from UniProt Q9R0I6 1-496), the binding entry in experiment [1] is given as “no binding”. On the same count and under the same terms, the value for p62 (from UniProt O08623 1-439) was “binds”.

B1: RAG1 (protein, UniProt G3V6K9 1-1040)
chain: MAVPLPSTLRLSSAPDEIQHPHIKFSEWKFKLFRVRSFEKAPEEAQKEKDSSEGKPCLEQSPVVLDKPGGQNSVLTQRALKLHPKFSKKFHVDGKSSDKAIHQARLRHFCRICGNHFKSDGHNRRYPVHGPVDAKTQSLFRKKEKRVTSWPDLIARVFRIDVKSDVDSIHPTEFCHNCWSIMHRKFGSAHSQVYCPRNVTVEWHPHTPSCDICFTAHRGLKRKRHQPNVQLSKKLKTVLNHARRDRRKRTQARVSSKEVMKKISNCSKIHLSTKLLAVDFPAHFVKSISCQICEHILADPVETTCKHLFCRICILRCLKVMGSYCPSCRYPCFPTDLQSPVKSFLSILNSLMVKCPAQECNEEVSLEKYNHHVSSHKESKETLVHINKGGRPRQHLLSLTRRAQKHRLRELKIQVKEFADKEEGGDVKSVCLTLFLLALRARNEHRQADELEAIMQGRGSGLQPAVCLAIRVNTFLSCSQYHKMYRTVKAITGRQIFQPLHALRNAEKVLLPGYHPFEWQPPLKNVSSRTDVGIIDGLSGLASSVDEYPVDTIAKRFRYDSALVSALMDMEEDILDGMRSQDLDDYVSGPFTVVVKESCDGMGDVSEKHGSGPAVPEKAVRFSFTVMRVTVEHGSQNVKIFEEPKPNSELCCKPLCLMLADESDHETLTAILSPLIAEREAMKSSELLLEMGGIPRTFKFIFRGTGYDEKLVREVEGLEASGSVYICTLCDATRLEASQNLVFHSITRSHAENLQRYEVWRSNPYHESVEELRDRVKGVSAKPFIETVPSIDALHCDIGNAAEFYKIFQLEIGEVYKNPNASKEERKRWQATLDKHLRKRMNLKPIMRMNGNFARKLMTQETVDAVCELIPSEERHEALRELMDLYLKMKPVWRSSCPAKECPESLCQYSFNSQRFAELLSTKFKYRYEGKITNYFHKTLAHVPEIIERDGSIGAWASEGNESGNKLFRRFRKMNARQSKCYEMEDVLKHHWLYTSKYLQKFMNAHNALKNSGFTMNSKETLGDSLDIEDSLESQDSMEF
B1: the binding result in experiment [2] is “no binding”.
